Source: paper PMC10965980
Substitutions are numbered along the chain they refer to. No constants are given. Whether binding was seen depends on the method and setting. In cells and extracts the contact can be indirect. Some entries that bind do so weakly or less than the wild type.

Sequences of proteins named here, by UniProt entry; tags and fusion partners are left off. A change or cut given only in a name is not applied to a line headed by its entry. A line that says so, or that is headed by a name, gives the form on record, which may keep a tag or linker. Residues count along the entry.
metabotropic glutamate receptor 1 (mGluR1) (P97772, residues 21-1199): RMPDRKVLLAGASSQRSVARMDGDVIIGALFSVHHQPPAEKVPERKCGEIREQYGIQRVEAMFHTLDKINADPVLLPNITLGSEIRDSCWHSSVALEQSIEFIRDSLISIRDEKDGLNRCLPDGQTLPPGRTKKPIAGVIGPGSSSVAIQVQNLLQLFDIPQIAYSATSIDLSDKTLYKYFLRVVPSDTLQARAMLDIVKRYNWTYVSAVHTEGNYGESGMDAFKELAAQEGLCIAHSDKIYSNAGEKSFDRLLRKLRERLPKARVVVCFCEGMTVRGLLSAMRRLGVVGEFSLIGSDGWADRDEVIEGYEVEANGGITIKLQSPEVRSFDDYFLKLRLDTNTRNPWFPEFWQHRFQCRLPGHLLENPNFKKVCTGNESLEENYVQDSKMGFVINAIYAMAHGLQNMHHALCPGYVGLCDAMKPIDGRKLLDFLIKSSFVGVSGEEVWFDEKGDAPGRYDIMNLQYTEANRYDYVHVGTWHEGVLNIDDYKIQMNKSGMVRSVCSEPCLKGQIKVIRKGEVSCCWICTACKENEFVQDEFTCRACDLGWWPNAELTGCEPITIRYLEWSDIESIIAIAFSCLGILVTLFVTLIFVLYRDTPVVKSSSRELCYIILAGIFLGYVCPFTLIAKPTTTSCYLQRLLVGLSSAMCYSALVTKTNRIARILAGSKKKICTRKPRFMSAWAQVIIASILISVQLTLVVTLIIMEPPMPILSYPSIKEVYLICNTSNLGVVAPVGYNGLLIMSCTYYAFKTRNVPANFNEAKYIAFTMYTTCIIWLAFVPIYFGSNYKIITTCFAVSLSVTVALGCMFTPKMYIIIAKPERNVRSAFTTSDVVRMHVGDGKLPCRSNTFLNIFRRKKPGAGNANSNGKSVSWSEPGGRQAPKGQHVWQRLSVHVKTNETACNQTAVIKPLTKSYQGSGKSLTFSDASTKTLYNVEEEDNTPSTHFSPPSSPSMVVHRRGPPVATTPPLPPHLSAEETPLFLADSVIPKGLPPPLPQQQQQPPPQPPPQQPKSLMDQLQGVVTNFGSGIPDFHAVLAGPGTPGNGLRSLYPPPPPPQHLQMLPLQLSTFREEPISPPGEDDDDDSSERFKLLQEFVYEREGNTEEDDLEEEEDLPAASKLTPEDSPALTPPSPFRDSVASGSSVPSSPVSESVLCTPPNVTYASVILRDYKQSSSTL
mGluR1 with a dephosphomimetic Homer-binding site mutation (S1154A) (P97772, form named): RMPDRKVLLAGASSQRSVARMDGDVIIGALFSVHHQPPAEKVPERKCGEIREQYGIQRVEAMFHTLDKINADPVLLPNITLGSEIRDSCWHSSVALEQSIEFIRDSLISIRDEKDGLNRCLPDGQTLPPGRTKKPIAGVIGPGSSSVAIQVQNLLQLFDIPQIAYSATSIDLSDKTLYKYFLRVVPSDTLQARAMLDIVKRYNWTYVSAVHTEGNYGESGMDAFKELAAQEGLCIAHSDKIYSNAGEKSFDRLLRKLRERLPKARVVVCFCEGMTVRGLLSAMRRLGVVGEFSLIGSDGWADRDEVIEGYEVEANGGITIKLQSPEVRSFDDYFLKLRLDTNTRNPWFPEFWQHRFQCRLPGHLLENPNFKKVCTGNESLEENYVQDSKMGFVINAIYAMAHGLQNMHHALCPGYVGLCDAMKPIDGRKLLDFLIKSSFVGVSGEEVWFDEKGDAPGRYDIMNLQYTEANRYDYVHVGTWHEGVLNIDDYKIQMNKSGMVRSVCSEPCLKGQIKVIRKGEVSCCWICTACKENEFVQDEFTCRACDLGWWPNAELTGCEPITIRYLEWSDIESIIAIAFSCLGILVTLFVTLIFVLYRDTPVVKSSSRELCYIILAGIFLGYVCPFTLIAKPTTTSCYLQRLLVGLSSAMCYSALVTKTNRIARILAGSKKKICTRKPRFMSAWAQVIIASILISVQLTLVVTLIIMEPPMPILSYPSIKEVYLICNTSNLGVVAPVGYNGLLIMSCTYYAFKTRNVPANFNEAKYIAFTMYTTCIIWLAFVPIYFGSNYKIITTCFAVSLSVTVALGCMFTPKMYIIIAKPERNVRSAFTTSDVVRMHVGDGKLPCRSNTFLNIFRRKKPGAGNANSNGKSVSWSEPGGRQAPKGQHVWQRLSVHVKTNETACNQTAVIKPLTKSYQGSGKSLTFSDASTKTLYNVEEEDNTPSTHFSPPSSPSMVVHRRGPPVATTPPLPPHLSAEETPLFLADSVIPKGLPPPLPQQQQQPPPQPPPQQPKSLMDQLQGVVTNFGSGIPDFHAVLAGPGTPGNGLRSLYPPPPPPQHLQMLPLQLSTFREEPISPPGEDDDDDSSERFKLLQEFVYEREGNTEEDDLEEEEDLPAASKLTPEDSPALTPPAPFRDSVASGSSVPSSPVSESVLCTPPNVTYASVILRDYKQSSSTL
mGluR1 with a phosphomimetic Homer-binding site mutation (S1154D) (P97772, form named): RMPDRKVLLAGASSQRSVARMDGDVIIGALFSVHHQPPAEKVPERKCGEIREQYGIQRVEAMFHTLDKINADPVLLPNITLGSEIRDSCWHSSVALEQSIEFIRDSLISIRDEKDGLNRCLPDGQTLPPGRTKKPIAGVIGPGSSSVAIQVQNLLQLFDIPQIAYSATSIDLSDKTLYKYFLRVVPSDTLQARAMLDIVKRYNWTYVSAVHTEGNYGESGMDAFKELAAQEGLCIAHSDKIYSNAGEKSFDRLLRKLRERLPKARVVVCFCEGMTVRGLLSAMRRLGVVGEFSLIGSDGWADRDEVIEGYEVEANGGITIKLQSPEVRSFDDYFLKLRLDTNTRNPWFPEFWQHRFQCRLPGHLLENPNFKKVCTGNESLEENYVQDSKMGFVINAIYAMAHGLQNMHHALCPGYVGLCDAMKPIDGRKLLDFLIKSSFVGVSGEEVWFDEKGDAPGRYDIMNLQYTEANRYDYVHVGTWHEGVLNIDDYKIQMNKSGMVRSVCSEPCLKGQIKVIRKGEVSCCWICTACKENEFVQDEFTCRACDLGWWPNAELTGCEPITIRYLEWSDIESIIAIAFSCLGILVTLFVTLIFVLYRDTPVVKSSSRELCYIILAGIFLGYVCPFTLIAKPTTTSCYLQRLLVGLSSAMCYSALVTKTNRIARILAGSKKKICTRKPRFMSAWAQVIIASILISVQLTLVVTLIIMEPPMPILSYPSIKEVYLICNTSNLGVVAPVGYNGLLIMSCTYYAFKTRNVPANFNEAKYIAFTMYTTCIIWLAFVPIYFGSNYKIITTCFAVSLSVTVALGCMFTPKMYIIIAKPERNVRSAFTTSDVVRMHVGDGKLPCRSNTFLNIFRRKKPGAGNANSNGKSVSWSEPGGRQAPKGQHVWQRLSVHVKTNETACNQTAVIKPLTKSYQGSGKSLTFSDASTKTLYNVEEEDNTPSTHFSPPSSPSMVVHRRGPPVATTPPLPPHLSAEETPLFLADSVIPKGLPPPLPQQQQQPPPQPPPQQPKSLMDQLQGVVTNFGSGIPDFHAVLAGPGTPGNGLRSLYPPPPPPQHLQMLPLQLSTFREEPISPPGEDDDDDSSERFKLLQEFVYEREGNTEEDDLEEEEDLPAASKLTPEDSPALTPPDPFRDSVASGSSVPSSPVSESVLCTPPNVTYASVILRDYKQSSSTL

Legend:
Experiment in all cases: co-IP; cultured mouse cortical neurons transfected for 72 h with lentiviruses for wild-type or mutant mGluR1 or Homer1, 24 h after TNI; anti-Homer1 precipitation (stated for the Homer1 vectors), western blot for mGluR1 and Homer1
[1] = target: T1, Homer1 (mouse (endogenous in cultured cortical neurons and cortex)) (UniProt Q9Z2Y3)
T1 sequence: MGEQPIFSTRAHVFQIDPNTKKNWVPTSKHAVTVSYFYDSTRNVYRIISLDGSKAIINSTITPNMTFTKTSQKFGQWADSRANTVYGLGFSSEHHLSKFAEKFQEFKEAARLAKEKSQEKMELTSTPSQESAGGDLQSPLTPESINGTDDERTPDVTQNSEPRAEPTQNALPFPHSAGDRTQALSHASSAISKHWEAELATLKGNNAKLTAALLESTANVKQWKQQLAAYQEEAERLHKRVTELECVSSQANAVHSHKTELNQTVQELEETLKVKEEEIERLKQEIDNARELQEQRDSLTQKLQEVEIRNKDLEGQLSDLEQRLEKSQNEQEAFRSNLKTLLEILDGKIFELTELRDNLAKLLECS

[2] = target: T2, Homer1 with a dephosphomimetic hinge region mutation (S117A) (UniProt Q9Z2Y3)
T2 sequence: T1 sequence with S117A

[3] = target: T3, Homer1 with a phosphomimetic hinge region mutation (S117D) (UniProt Q9Z2Y3)
T3 sequence: T1 sequence with S117D

binding [1] | binding [2] | binding [3] | Substance
binds | – | – | mGluR1 with a dephosphomimetic Homer-binding site mutation (S1154A) (from UniProt P97772 21-1199) (receptor)
binds | – | – | mGluR1 with a phosphomimetic Homer-binding site mutation (S1154D) (from UniProt P97772 21-1199) (receptor)
– | binds | binds | metabotropic glutamate receptor 1 (mGluR1) (from UniProt P97772 21-1199)
